Source: article PMC4869170

Sequences of proteins named here, by UniProt entry; tags and fusion partners are left off.
UniProt O60303: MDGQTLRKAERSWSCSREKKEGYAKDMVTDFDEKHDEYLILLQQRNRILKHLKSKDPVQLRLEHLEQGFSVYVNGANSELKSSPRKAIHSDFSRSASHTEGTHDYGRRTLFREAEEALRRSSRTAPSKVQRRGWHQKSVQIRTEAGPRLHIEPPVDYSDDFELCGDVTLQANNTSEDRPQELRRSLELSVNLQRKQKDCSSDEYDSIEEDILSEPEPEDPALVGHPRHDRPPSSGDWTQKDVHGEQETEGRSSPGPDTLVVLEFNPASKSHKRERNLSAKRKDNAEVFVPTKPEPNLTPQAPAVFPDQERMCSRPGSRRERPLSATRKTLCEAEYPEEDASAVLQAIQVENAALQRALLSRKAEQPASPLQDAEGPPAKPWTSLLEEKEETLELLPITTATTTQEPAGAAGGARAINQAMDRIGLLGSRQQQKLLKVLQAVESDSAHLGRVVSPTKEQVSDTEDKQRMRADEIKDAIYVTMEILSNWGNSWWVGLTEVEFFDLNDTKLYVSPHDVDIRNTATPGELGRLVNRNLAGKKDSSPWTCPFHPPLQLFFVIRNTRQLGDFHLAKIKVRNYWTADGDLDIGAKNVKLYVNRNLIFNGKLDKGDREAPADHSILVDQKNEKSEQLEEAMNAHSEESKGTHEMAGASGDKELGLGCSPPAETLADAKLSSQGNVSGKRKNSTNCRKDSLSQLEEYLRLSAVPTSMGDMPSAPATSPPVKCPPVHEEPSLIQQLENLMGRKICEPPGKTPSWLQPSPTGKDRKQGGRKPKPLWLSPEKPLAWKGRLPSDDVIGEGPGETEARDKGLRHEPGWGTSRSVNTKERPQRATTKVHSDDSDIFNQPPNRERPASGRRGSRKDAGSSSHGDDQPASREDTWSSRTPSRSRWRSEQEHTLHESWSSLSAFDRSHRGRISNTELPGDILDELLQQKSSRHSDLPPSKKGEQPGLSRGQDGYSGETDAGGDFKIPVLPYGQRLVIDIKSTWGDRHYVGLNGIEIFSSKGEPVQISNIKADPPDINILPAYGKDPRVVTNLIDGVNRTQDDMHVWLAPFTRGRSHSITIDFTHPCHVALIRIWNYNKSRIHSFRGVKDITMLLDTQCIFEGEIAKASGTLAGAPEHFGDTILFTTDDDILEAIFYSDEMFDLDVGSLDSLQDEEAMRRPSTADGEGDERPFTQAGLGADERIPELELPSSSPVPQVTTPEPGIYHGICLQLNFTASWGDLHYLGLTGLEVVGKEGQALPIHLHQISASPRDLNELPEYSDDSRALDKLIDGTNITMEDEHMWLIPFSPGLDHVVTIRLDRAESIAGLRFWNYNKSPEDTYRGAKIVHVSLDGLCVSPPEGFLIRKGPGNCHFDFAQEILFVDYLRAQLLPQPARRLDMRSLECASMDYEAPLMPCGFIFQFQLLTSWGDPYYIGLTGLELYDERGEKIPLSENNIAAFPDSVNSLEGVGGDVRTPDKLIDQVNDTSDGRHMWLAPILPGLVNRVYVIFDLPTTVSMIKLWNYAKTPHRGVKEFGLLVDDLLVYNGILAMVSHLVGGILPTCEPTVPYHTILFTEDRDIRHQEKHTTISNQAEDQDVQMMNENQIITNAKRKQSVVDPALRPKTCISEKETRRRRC
UniProt P08670: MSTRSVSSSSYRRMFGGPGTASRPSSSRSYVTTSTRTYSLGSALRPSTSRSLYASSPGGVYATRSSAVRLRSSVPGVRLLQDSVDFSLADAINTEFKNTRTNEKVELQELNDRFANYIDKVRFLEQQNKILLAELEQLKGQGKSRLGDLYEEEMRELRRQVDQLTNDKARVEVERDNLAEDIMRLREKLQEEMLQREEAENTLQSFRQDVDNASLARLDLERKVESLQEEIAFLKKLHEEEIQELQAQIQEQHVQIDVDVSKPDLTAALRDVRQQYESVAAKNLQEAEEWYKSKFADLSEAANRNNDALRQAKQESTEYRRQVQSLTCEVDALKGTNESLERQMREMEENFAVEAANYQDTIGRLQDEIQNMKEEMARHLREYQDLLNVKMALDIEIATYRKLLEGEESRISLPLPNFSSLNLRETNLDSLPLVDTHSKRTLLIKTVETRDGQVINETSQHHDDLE
UniProt Q8IY31: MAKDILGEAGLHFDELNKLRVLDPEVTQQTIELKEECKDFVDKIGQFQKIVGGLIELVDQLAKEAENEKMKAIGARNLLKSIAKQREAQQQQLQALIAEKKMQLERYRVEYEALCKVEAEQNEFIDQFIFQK
UniProt P61006: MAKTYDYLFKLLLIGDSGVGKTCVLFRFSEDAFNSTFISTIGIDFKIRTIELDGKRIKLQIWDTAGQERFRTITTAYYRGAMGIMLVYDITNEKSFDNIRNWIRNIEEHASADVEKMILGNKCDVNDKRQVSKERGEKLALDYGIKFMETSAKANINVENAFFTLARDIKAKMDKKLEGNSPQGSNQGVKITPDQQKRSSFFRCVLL

Legend:
CBY1 (human) = CBY1 (human) (UniProt Q9Y3M2); assay: affinity purification with mass spectrometry; SF-TAP-tagged bait overexpressed in HEK293T; lysis in 0.5% NP-40 in TBS (30 mM Tris-HCl pH 7.4, 150 mM NaCl); two steps at 4 °C: Strep-Tactin superflow (desthiobiotin elution), then anti-FLAG M2 agarose (FLAG peptide elution); LC-MS/MS; interactions scored by socioaffinity
KIAA0556 (human) = KIAA0556 (human) (UniProt O60303); assay: affinity purification with mass spectrometry; SF-TAP of tagged baits overexpressed in HEK293T (Strep-Tactin, then anti-FLAG M2 agarose, FLAG peptide elution; lysis 0.5% NP-40 in TBS, 4 °C); LC-MS/MS; interactions scored by socioaffinity (spoke and matrix evidence), FDR/FPR≤0.1
vimentin (human) = vimentin (human) (UniProt P08670); assay: as above
TRAF3IP1 (human) = target: T1, TRAF3IP1 (human) (UniProt Q8TDR0); assay: as above
T1 sequence: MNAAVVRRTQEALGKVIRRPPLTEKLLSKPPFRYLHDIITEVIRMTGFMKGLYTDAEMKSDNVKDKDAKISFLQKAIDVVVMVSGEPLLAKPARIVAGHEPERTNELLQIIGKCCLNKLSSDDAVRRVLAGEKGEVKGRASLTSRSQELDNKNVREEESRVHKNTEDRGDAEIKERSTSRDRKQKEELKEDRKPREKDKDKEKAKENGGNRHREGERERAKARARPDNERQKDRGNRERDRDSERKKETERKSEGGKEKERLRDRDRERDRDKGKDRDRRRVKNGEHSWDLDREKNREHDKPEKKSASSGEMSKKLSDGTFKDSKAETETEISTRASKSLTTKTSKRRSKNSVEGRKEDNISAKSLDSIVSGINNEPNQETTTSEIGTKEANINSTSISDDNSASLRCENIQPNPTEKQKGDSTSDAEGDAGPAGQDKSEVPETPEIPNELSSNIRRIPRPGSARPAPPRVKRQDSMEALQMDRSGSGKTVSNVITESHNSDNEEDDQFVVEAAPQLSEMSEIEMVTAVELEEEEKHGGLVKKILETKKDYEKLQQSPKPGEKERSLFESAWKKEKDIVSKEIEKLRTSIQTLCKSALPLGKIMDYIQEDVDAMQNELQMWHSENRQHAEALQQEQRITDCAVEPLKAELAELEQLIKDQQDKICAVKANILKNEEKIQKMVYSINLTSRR

IFT20 (human) = IFT20 (human) (UniProt Q8IY31); assay: as above
RAB8A (human) = RAB8A (human) (UniProt P61006); assay: as above

B1: CCDC8 (protein, UniProt Q9H0W5 1-538)
chain: MLQIGEDVDYLLIPREVRLAGGVWRVISKPATKEAEFRERLTQFLEEEGRTLEDVARIMEKSTPHPPQPPKKPKEPRVRRRVQQMVTPPPRLVVGTYDSSNASDSEFSDFETSRDKSRQGPRRGKKVRKMPVSYLGSKFLGSDLESEDDEELVEAFLRRQEKQPSAPPARRRVNLPVPMFEDNLGPQLSKADRWREYVSQVSWGKLKRRVKGWAPRAGPGVGEARLASTAVESAGVSSAPEGTSPGDRLGNAGDVCVPQASPRRWRPKINWASFRRRRKEQTAPTGQGADIEADQGGEAADSQREEAIADQREGAAGNQRAGAPADQGAEAADNQREEAADNQRAGAPAEEGAEAADNQREEAADNQRAEAPADQRSQGTDNHREEAADNQRAEAPADQGSEVTDNQREEAVHDQRERAPAVQGADNQRAQARAGQRAEAAHNQRAGAPGIQEAEVSAAQGTTGTAPGARARKQVKTVRFQTPGRFSWFCKRRRAFWHTPRLPTLPKRVPRAGEARNLRVLRAEARAEAEQGEQEDQL
CBY1 (human)
  binding: binds

B2: ICK (protein, UniProt Q9UPZ9 1-632)
chain: MNRYTTIRQLGDGTYGSVLLGRSIESGELIAIKKMKRKFYSWEECMNLREVKSLKKLNHANVVKLKEVIRENDHLYFIFEYMKENLYQLIKERNKLFPESAIRNIMYQILQGLAFIHKHGFFHRDLKPENLLCMGPELVKIADFGLAREIRSKPPYTDYVSTRWYRAPEVLLRSTNYSSPIDVWAVGCIMAEVYTLRPLFPGASEIDTIFKICQVLGTPKKTDWPEGYQLSSAMNFRWPQCVPNNLKTLIPNASSEAVQLLRDMLQWDPKKRPTASQALRYPYFQVGHPLGSTTQNLQDSEKPQKGILEKAGPPPYIKPVPPAQPPAKPHTRISSRQHQASQPPLHLTYPYKAEVSRTDHPSHLQEDKPSPLLFPSLHNKHPQSKITAGLEHKNGEIKPKSRRRWGLISRSTKDSDDWADLDDLDFSPSLSRIDLKNKKRQSDDTLCRFESVLDLKPSEPVGTGNSAPTQTSYQRRDTPTLRSAAKQHYLKHSRYLPGISIRNGILSNPGKEFIPPNPWSSSGLSGKSSGTMSVISKVNSVGSSSTSSSGLTGNYVPSFLKKEIGSAMQRVHLAPIPDPSPGYSSLKAMRPHPGRPFFHTQPRSTPGLIPRPPAAQPVHGRTDWASKYASRR
KIAA0556 (human)
  binding: binds

B3: MAK (protein, UniProt P20794 1-623)
chain: MNRYTTMRQLGDGTYGSVLMGKSNESGELVAIKRMKRKFYSWDECMNLREVKSLKKLNHANVIKLKEVIRENDHLYFIFEYMKENLYQLMKDRNKLFPESVIRNIMYQILQGLAFIHKHGFFHRDMKPENLLCMGPELVKIADFGLARELRSQPPYTDYVSTRWYRAPEVLLRSSVYSSPIDVWAVGSIMAELYMLRPLFPGTSEVDEIFKICQVLGTPKKSDWPEGYQLASSMNFRFPQCVPINLKTLIPNASNEAIQLMTEMLNWDPKKRPTASQALKHPYFQVGQVLGPSSNHLESKQSLNKQLQPLESKPSLVEVEPKPLPDIIDQVVGQPQPKTSQQPLQPIQPPQNLSVQQPPKQQSQEKPPQTLFPSIVKNMPTKPNGTLSHKSGRRRWGQTIFKSGDSWEELEDYDFGASHSKKPSMGVFKEKRKKDSPFRLPEPVPSGSNHSTGENKSLPAVTSLKSDSELSTAPTSKQYYLKQSRYLPGVNPKKVSLIASGKEINPHTWSNQLFPKSLGPVGAELAFKRSNAGNLGSYATYNQSGYIPSFLKKEVQSAGQRIHLAPLNATASEYTWNTKTGRGQFSGRTYNPTAKNLNIVNRAQPIPSVHGRTDWVAKYGGHR
KIAA0556 (human)
  binding: binds

B4: NEFL (protein, UniProt P07196 1-543)
chain: MSSFSYEPYYSTSYKRRYVETPRVHISSVRSGYSTARSAYSSYSAPVSSSLSVRRSYSSSSGSLMPSLENLDLSQVAAISNDLKSIRTQEKAQLQDLNDRFASFIERVHELEQQNKVLEAELLVLRQKHSEPSRFRALYEQEIRDLRLAAEDATNEKQALQGEREGLEETLRNLQARYEEEVLSREDAEGRLMEARKGADEAALARAELEKRIDSLMDEISFLKKVHEEEIAELQAQIQYAQISVEMDVTKPDLSAALKDIRAQYEKLAAKNMQNAEEWFKSRFTVLTESAAKNTDAVRAAKDEVSESRRLLKAKTLEIEACRGMNEALEKQLQELEDKQNADISAMQDTINKLENELRTTKSEMARYLKEYQDLLNVKMALDIEIAAYRKLLEGEETRLSFTSVGSITSGYSQSSQVFGRSAYGGLQTSSYLMSTRSFPSYYTSHVQEEQIEVEETIEAAKAEEAKDEPPSEGEAEEEEKDKEEAEEEEAAEEEEAAKEESEEAKEEEEGGEGEEGEETKEAEEEEKKVEGAGEEQAAKKKD
Vimentin (human)
  binding: binds

B5: BLOC1S2 (protein, UniProt Q6QNY1 1-142)
chain: MAAAAEGVLATRSDEPARDDAAVETAEEAKEPAEADITELCRDMFSKMATYLTGELTATSEDYKLLENMNKLTSLKYLEMKDIAINISRNLKDLNQKYAGLQPYLDQINVIEEQVAALEQAAYKLDAYSKKLEAKYKKLEKR
TRAF3IP1 (human)
  binding: binds
IFT20 (human)
  binding: binds

B6: RAB3IP (protein, UniProt Q96QF0 1-476)
chain: MGLKKMKGLSYDEAFAMANDPLEGFHEVNLASPTSPDLLGVYESGTQEQTTSPSVIYRPHPSALSSVPIQANALDVSELPTQPVYSSPRRLNCAEISSISFHVTDPAPCSTSGVTAGLTKLTTRKDNYNAEREFLQGATITEACDGSDDIFGLSTDSLSRLRSPSVLEVREKGYERLKEELAKAQRELKLKDEECERLSKVRDQLGQELEELTASLFEEAHKMVREANIKQATAEKQLKEAQGKIDVLQAEVAALKTLVLSSSPTSPTQEPLPGGKTPFKKGHTRNKSTSSAMSGSHQDLSVIQPIVKDCKEADLSLYNEFRLWKDEPTMDRTCPFLDKIYQEDIFPCLTFSKSELASAVLEAVENNTLSIEPVGLQPIRFVKASAVECGGPKKCALTGQSKSCKHRIKLGDSSNYYYISPFCRYRITSVCNFFTYIRYIQQGLVKQQDVDQMFWEVMQLRKEMSLAKLGYFKEEL
RAB8A (human)
  binding: binds

B7: stomatin (protein, UniProt P27105 1-288)
chain: MAEKRHTRDSEAQRLPDSFKDSPSKGLGPCGWILVAFSFLFTVITFPISIWMCIKIIKEYERAIIFRLGRILQGGAKGPGLFFILPCTDSFIKVDMRTISFDIPPQEILTKDSVTISVDGVVYYRVQNATLAVANITNADSATRLLAQTTLRNVLGTKNLSQILSDREEIAHNMQSTLDDATDAWGIKVERVEIKDVKLPVQLQRAMAAEAEASREARAKVIAAEGEMNASRALKEASMVITESPAALQLRYLQTLTTIAAEKNSTIVFPLPIDMLQGIIGAKHSHLG
RAB8A (human)
  binding: binds

These are yes or no findings as the source states them, for the method shown. In cells and extracts the contact can be indirect. These calls come from enrichment with a bait or labelling near it, and not all partners need be listed.
